# The other results are listed elsewhere or left out.
# B1: pullulanase (Streptococcus pyogenes), Q8KLP1 (protein)
# chain: MKKKVNQGSKRYQYLLKKWGIGFVIAATGTVMLGCIPSILTHQVAAKTIVGLARDEAQQGDGNAKSGDGFQSSSKEAKPVLDSSSANPASIAEHHLRMHFKTLPAGESLGSLGLWVWGDVDQPSKDWPNGAITMTKAKKDDYGYYLDVPLAAKHRQQVSYLINNKAGENLSKDQHIPLLTPKMNEVWIDENYHAHAYRPLKKGYLRINYHNQSGHYDNLAVWTFKDVKTPTTDWPNGLDLSHKGPYGAYVDVPLKEGANEIGFLILDKSKTGDAIKVQPKDYLFKELDNHTQVFVKDTDPKVYNNPYYIDQVSLKGAEQTTPNEIKAIFTTLDGLDEDAVKQNIKITDKAGKTVAIDELTLDKDKSVMTLKGDFKAQGAVYTVTFGEVSQVARQSWQLKDKLYAYDGELGATLAKDGSVDLALWSPSADSVKVVVYDKQDQTKVVGQADLTKSDKGVWRAHLTSDSVKGISDYTGYYYLYEITRGQEKVMVLDPYAKSLAAWNDATATDDIKTAKAAFIDPSKLGPTGLDFAKINNFKKREDAIIYEAHVRDFTSDKALEGKLTHPFGTFSAFVEQLDYLKDLGVTHVQLLPVLSYFYANELDKTRSTAYTSSDNNYNWGYDPQHYFALSGMYSANPNDPALRIAELKNLVNEIHKRGMGVIFDVVYNHTARTYLFEDLEPNYYHFMNADGTARESFGGGRLGTTHAMSRRILVDSITYLTREFKVDGFRFDMMGDHDAAAIEQAFKAAKAINPNTIMIGEGWRTYQGDEGKKEIAADQDWMKATNTVGVFSDDIRNTLKSGFPNEGTAAFITGGAKNLEGLFKTIKAQPSNFEADAPGDVVQYIAAHDNLTLHDVIAKSINKDPKVAEEEIHKRIRLGNTMILTAQGTAFIHSGQEYGRTKQLLNPDYKTKVSDDKVPNKATLIDAVAQYPYFIHDSYDSSDAVNHFDWAKATDSIAHPISNQTKAYTQGLIALRRSTDAFTKATKAEVDRDVTLITQAGQDGIQQEDLIMGYQTVASNGDRYAVFVNADNKTRKVVLPQAYRYLLGAQVLADAEQVGVTAIAKPKGVQFTKEGLTIDGLTALVLKVSSKTANPSQQKSQTDNHQTKTPDGSKDLDKSLMTRPKRAKTNQKLPKTGEAPSKGLLAAGVALLLLAISLLMKRQKD
# Experiments:
# Assay in all cases: glycan array binding signal (z-score within array); higher = stronger binding
# Details in all cases: glycan notation: IUPAC condensed, linker removed
# [1] = biological target: Fuc(a1-2)[Gal(a1-3)]Gal(b1-4)GlcNAc(b1-3)GalNAc
# In short: (§1)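 Glycan array data were curated from 3228 arrays in the Consortium for Functional Glycomics database and kept only where the protein sequence was available. Glycan names were converted to IUPAC-condensed notation, and columns mapping to the same glycan were averaged. The binding signal is a within-array Z-score, averaged across arrays of the same protein sequence at different concentrations or buffers and across linkers. Negative Z-scores can be read as non-binding.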
# [2] = biological target: Fuc(a1-2)[Gal(a1-3)]Gal(b1-4)[Fuc(a1-3)]Glc
# In short: as §1
# [3] = biological target: Fuc(a1-2)[Gal(a1-3)]Gal(b1-4)[Fuc(a1-3)]GlcNAc
# In short: as §1
# [4] = biological target: Fuc(a1-2)[Gal(a1-3)]Gal(b1-4)[Fuc(a1-3)]GlcNAc(b1-3)GalNAc
# In short: as §1
# [5] = biological target: Fuc(a1-2)[Gal(a1-4)]Gal(b1-4)GlcNAc
# In short: as §1
# [6] = biological target: Fuc(a1-2)[GalNAc(a1-3)]Gal
# In short: as §1
# [7] = biological target: Fuc(a1-2)[GalNAc(a1-3)]Gal(b1-3)GalNAc(a1-3)[Fuc(a1-2)]Gal(b1-4)GlcNAc
# In short: as §1
# [8] = biological target: Fuc(a1-2)[GalNAc(a1-3)]Gal(b1-3)GlcNAc
# In short: as §1
# [9] = biological target: Fuc(a1-2)[GalNAc(a1-3)]Gal(b1-3)GlcNAc(b1-2)Man(a1-3)[Fuc(a1-2)[GalNAc(a1-3)]Gal(b1-3)GlcNAc(b1-2)Man(a1-6)]Man(b1-4)GlcNAc(b1-4)GlcNAc
# In short: as §1
# [10] = biological target: Fuc(a1-2)[GalNAc(a1-3)]Gal(b1-3)GlcNAc(b1-3)GalNAc
# In short: as §1
# [11] = biological target: Fuc(a1-2)[GalNAc(a1-3)]Gal(b1-4)Glc
# In short: as §1
# [12] = biological target: Fuc(a1-2)[GalNAc(a1-3)]Gal(b1-4)GlcNAc
# In short: as §1
# [13] = biological target: Fuc(a1-2)[GalNAc(a1-3)]Gal(b1-4)GlcNAc(b1-2)Man(a1-3)[Fuc(a1-2)[GalNAc(a1-3)]Gal(b1-4)GlcNAc(b1-2)Man(a1-6)]Man(b1-4)GlcNAc(b1-4)GlcNAc
# In short: as §1
# [14] = biological target: Fuc(a1-2)[GalNAc(a1-3)]Gal(b1-4)GlcNAc(b1-3)Gal(b1-4)GlcNAc
# In short: as §1
# [15] = biological target: Fuc(a1-2)[GalNAc(a1-3)]Gal(b1-4)GlcNAc(b1-3)Gal(b1-4)GlcNAc(b1-3)Gal(b1-4)GlcNAc
# In short: as §1
# [16] = biological target: Fuc(a1-2)[GalNAc(a1-3)]Gal(b1-4)GlcNAc(b1-3)GalNAc
# In short: as §1
# [17] = biological target: Fuc(a1-2)[GalNAc(a1-3)]Gal(b1-4)[Fuc(a1-3)]GlcNAc
# In short: as §1
# [18] = biological target: Fuc(a1-2)[GalNAc(a1-3)]Gal(b1-4)[Fuc(a1-3)]GlcNAc(b1-3)GalNAc
# In short: as §1
# [19] = biological target: Fuc(a1-2)[GalNAc(a1-4)]Gal(b1-4)GlcNAc
# In short: as §1
# [20] = biological target: Fuc(a1-2)[GalNAc(b1-3)]Gal
# In short: as §1
# Fuc(a1-3)GlcNAc = biological target: Fuc(a1-3)GlcNAc
# In short: as §1
# [21] = biological target: Fuc(a1-3)[Gal(b1-4)]Glc6S
# In short: as §1
# [22] = biological target: Fuc(a1-3)[Gal(b1-4)]GlcNAc
# In short: as §1
# [23] = biological target: Fuc(a1-3)[Gal(b1-4)]GlcNAc(b1-2)Man(a1-3)[Fuc(a1-3)[Gal(b1-4)]GlcNAc(b1-2)Man(a1-6)]Man(b1-4)GlcNAc(b1-4)GlcNAc
# In short: as §1
# [24] = biological target: Fuc(a1-3)[Gal(b1-4)]GlcNAc(b1-2)Man(a1-3)[Fuc(a1-3)[Gal(b1-4)]GlcNAc(b1-2)Man(a1-6)]Man(b1-4)GlcNAc(b1-4)[Fuc(a1-6)]GlcNAc
# In short: as §1
# [25] = biological target: Fuc(a1-3)[Gal(b1-4)]GlcNAc(b1-3)Gal(b1-3)[Fuc(a1-4)]GlcNAc
# In short: as §1
# [26] = biological target: Fuc(a1-3)[Gal(b1-4)]GlcNAc(b1-3)GalNAc
# In short: as §1
# [27] = biological target: Fuc(a1-3)[Gal(b1-4)]GlcNAc(b1-4)Gal(b1-4)[Fuc(a1-3)]GlcNAc
# In short: as §1
# [28] = biological target: Fuc(a1-3)[Gal(b1-4)]GlcNAc(b1-4)Gal(b1-4)[Fuc(a1-3)]GlcNAc(b1-4)Gal(b1-4)[Fuc(a1-3)]GlcNAc
# In short: as §1
# [29] = biological target: Fuc(a1-3)[Gal(b1-4)]GlcNAc(b1-6)[Gal(b1-3)GlcNAc(b1-3)]Gal(b1-4)Glc
# In short: as §1
# [30] = biological target: Fuc(a1-3)[Gal(b1-4)]GlcNAc6S
# In short: as §1
# [31] = biological target: Fuc(a1-3)[Gal3S(b1-4)]GlcNAc
# In short: as §1
# [32] = biological target: Fuc(a1-3)[Gal3S(b1-4)]GlcNAc6S
# In short: as §1
# [33] = biological target: Fuc(a1-3)[GalNAc(b1-4)]GlcNAc
# In short: as §1
# Fuc(a1-4)GlcNAc = biological target: Fuc(a1-4)GlcNAc
# In short: as §1
# Fuc(b1-3)GlcNAc = biological target: Fuc(b1-3)GlcNAc
# In short: as §1
# Gal(a1-2)Gal = biological target: Gal(a1-2)Gal
# In short: as §1
# Gal(a1-3)Gal = biological target: Gal(a1-3)Gal
# In short: as §1
# Gal(a1-3)Gal(b1-3)GlcNAc = biological target: Gal(a1-3)Gal(b1-3)GlcNAc
# In short: as §1
# [34] = biological target: Gal(a1-3)Gal(b1-3)GlcNAc(b1-2)Man(a1-3)[Gal(a1-3)Gal(b1-3)GlcNAc(b1-2)Man(a1-6)]Man(b1-4)GlcNAc(b1-4)GlcNAc
# In short: as §1
# [35] = biological target: Gal(a1-3)Gal(b1-3)GlcNAc(b1-3)GalNAc
# In short: as §1
# [36] = biological target: Gal(a1-3)Gal(b1-3)[Fuc(a1-4)]GlcNAc(b1-2)Man(a1-3)[Gal(a1-3)Gal(b1-3)[Fuc(a1-4)]GlcNAc(b1-2)Man(a1-6)]Man(b1-4)GlcNAc(b1-4)GlcNAc
# In short: as §1
# Gal(a1-3)Gal(b1-4)Glc = biological target: Gal(a1-3)Gal(b1-4)Glc
# In short: as §1
# Gal(a1-3)Gal(b1-4)GlcNAc = biological target: Gal(a1-3)Gal(b1-4)GlcNAc
# In short: as §1
# [37] = biological target: Gal(a1-3)Gal(b1-4)GlcNAc(b1-3)GalNAc
# In short: as §1
binder,measurement,setting,value
B1,glycan array binding signal (z-score),[1],-0.009
same,glycan array binding signal (z-score),[2],-0.686
same,glycan array binding signal (z-score),[3],-0.03
same,glycan array binding signal (z-score),[4],-0.89
same,glycan array binding signal (z-score),[5],-0.131
same,glycan array binding signal (z-score),[6],-0.236
same,glycan array binding signal (z-score),[7],-1.19
same,glycan array binding signal (z-score),[8],-1.41
same,glycan array binding signal (z-score),[9],-0.215
same,glycan array binding signal (z-score),[10],2.51
same,glycan array binding signal (z-score),[11],-1.07
same,glycan array binding signal (z-score),[12],-0.344
same,glycan array binding signal (z-score),[13],-0.346
same,glycan array binding signal (z-score),[14],-0.355
same,glycan array binding signal (z-score),[15],-1.06
same,glycan array binding signal (z-score),[16],0.614
same,glycan array binding signal (z-score),[17],-0.025
same,glycan array binding signal (z-score),[18],1.05
same,glycan array binding signal (z-score),[19],2.36
same,glycan array binding signal (z-score),[20],-0.628
same,glycan array binding signal (z-score),Fuc(a1-3)GlcNAc,-0.696
same,glycan array binding signal (z-score),[21],-0.252
same,glycan array binding signal (z-score),[22],0.546
same,glycan array binding signal (z-score),[23],0.313
same,glycan array binding signal (z-score),[24],-0.639
same,glycan array binding signal (z-score),[25],0.5
same,glycan array binding signal (z-score),[26],0.189
same,glycan array binding signal (z-score),[27],1.24
same,glycan array binding signal (z-score),[28],0.241
same,glycan array binding signal (z-score),[29],1.06
same,glycan array binding signal (z-score),[30],0.34
same,glycan array binding signal (z-score),[31],0.116
same,glycan array binding signal (z-score),[32],0.403
same,glycan array binding signal (z-score),[33],0.271
same,glycan array binding signal (z-score),Fuc(a1-4)GlcNAc,-0.782
same,glycan array binding signal (z-score),Fuc(b1-3)GlcNAc,-0.226
same,glycan array binding signal (z-score),Gal(a1-2)Gal,-0.584
same,glycan array binding signal (z-score),Gal(a1-3)Gal,-0.497
same,glycan array binding signal (z-score),Gal(a1-3)Gal(b1-3)GlcNAc,0.157
same,glycan array binding signal (z-score),[34],1.51
same,glycan array binding signal (z-score),[35],0.955
same,glycan array binding signal (z-score),[36],1.74
same,glycan array binding signal (z-score),Gal(a1-3)Gal(b1-4)Glc,-1.73
same,glycan array binding signal (z-score),Gal(a1-3)Gal(b1-4)GlcNAc,-0.385
same,glycan array binding signal (z-score),[37],-0.911

# For reference, part of the list above.
binder,measurement,setting,value
B1,glycan array binding signal (z-score),[3],-0.03
same,glycan array binding signal (z-score),[4],-0.89
same,glycan array binding signal (z-score),[5],-0.131

# Source: the supplement of paper PMC8728848
